Test results taken from PubChem BioAssay AID2685 (National Center for Advancing Translational Sciences (NCATS), 2010).
The list shows a part of the results. Further columns of the screen follow, without active or inactive calls. Compounds called inactive in the main read-out are mostly missing here. The note in brackets gives the kind of curve behind each potency; many fits are weak.

Experiment: qHTS Assay for Lipid Storage Modulators in Drosophila S3 Cells;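 on cell number change: cells counted by Cell Tracker Red CMTPX staining in the red channel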
Details: BODIPY lipid droplet fluorescence, 18-24 h; for cell number change: measured here: cell count max response, cells fed with added oleic acid
Method in brief: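 Drosophila S3 cells got compounds at several concentrations plus oleic acid (400 uM solution). Laser-scanning cytometry with 488 nm excitation read lipid droplets at 500-530 nm and cells at 575-640 nm. Percent activity was relative to 20 uM Triacsin C.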

[1] = measured here: lipid fluorescence (Fed channel) AC50, cells fed with added oleic acid
[2] = measured here: cell number channel AC50, cells fed with added oleic acid

## CCOC(=O)c1c(C)c(C(=O)Nc2ccc3c(c2)OCCO3)c(C)n1CC
  cell number change: 3.93%
[1]
  AC50: 0.411 µM [rising, full curve, poor fit]

## CCOC(=O)c1sc(=S)n(CC)c1NC(=O)c1ccccc1C
  cell number change: 4.06%

## CCOC(=O)c1ccc(NC(=O)Cn2cccc2)cc1
  cell number change: 36.2%
[2]
  AC50: 7.31 µM [rising, partial curve]

## Cc1ccccc1/C=C/C12NC(=O)CN1c1ccccc1C2(C)C (stereo not given)
  cell number change: 2.34%

## CCC(CC)C(=O)Nc1ccccc1NC(C)=O
  cell number change: -19.9%
[1]
  AC50: 0.0461 µM [rising, full curve, poor fit]

## CCOc1cc(C(=O)Nc2ccc(C)cc2O)ccc1OCC(=O)N1CCOCC1
  cell number change: 21%

## CCC[C@H]1COCCS(=O)(=O)N1Cc1ccccc1
  cell number change: 16.5%
[1]
  AC50: 6.51 µM [rising, single point]

## COc1ccc(Cl)cc1NC(=O)NC1CCCCC1
  cell number change: -3.01%

## COc1ccc(-n2nc(C(=O)NCC(=O)NC3CCCC(C)C3C)c3ccccc3c2=O)c(OC)c1 (stereo not given)
  cell number change: 177%
[2]
  AC50: 29.1 µM [rising, single point]
[1]
  AC50: 29.1 µM [rising, single point]

## O=c1ccc2ccc(O[C@@H]3O[C@H](CO)[C@@H](O)[C@H](O)[C@H]3O)c(O)c2o1
  cell number change: -26.2%
[2]
  AC50: 0.0058 µM [falling, full curve, poor fit]
[1]
  AC50: 3.66 µM [rising, partial curve]

## Clc1ccccc1COc1ccccc1-c1nnco1
  cell number change: -1.91%

## O=C1NC(c2ccc(F)cc2)Oc2ccccc21 (stereo not given)
  cell number change: -9.45%
[1]
  AC50: 0.164 µM [rising, full curve, poor fit]

## CCN(CC)S(=O)(=O)c1ccc(Cl)c(NC(=O)c2ccccc2C)c1
  cell number change: -31.2%
[1]
  AC50: 20.6 µM [falling, partial curve, poor fit]

## Cc1sc(NC(=O)C2=COCCO2)nc1-c1ccc(Br)cc1
  cell number change: 7.98%

## COc1ccc([N+](=O)[O-])cc1NC(=O)COC(=O)/C=C/c1ccco1
[1]
  AC50: 16.4 µM [rising, partial curve, poor fit]

## O=C(C1CSC2(c3ccc(F)cc3)CCC(=O)N12)N1CCCCCC1 (stereo not given)
[1]
  AC50: 10.3 µM [falling, partial curve]

## O=[N+]([O-])c1cc(-c2ccc(/C=N\n3cnnc3)o2)cc([N+](=O)[O-])c1
  cell number change: -17.9%
[1]
  AC50: 0.082 µM [falling, full curve, poor fit]

## COc1ccc(OC)c(/C=N/NC2=NS(=O)(=O)c3ccccc32)c1
  cell number change: -15.3%

## CCOC(=O)CNC(=O)C(NC(=O)C1CCC(C)CC1)C(C)CC (stereo not given)
  cell number change: -21.5%
[2]
  AC50: 0.103 µM [falling, partial curve, poor fit]
[1]
  AC50: 1.03 µM [falling, full curve]

## COc1ccc(CC(=O)OCC(=O)NCc2ccccc2Cl)cc1
  cell number change: -21%

## CCN(CC(=O)Nc1ccc(C)c(S(=O)(=O)N2CCOCC2)c1)Cc1ccccc1
[2]
  AC50: 2.31 µM [rising, partial curve]

## COc1cc2c(cc1OC)C(c1ccccc1)N(C(=O)c1ccco1)CC2 (stereo not given)
  cell number change: -5.06%
[1]
  AC50: 6.51 µM [rising, single point]

## CC(=O)c1ccc(S(=O)(=O)N2CCCC2)cc1
  cell number change: -30.8%
[2]
  AC50: 18.4 µM [falling, single point]
[1]
  AC50: 29.1 µM [falling, single point]

## O=C(O)c1cccc(OCc2ccccc2Cl)c1
  cell number change: -0.452%
[2]
  AC50: 5.8 µM [falling, single point]
[1]
  AC50: 6.51 µM [falling, single point]

## O=C(CCC1COc2ccccc2O1)Nc1ccc(Cl)cn1 (stereo not given)
  cell number change: -14.4%
[1]
  AC50: 0.259 µM [falling, full curve, poor fit]

## COc1ccc(/C=N/OCC(=O)N2CCCC2)c(OC)c1
  cell number change: 20.2%
[1]
  AC50: 23.1 µM [rising, single point]

## CCCNC(=O)c1ccc2c(=O)c(O)c(-c3ccsc3)[nH]c2c1
  cell number change: -3.61%
[2]
  AC50: 6.51 µM [falling, single point]

## O=C(N/C(=C/c1cccs1)C(=O)N1CCOCC1)c1cccs1
  cell number change: -30.4%

## CN(Cc1ccccc1)C(=O)CSc1nc2ccccc2[nH]1
  cell number change: 51.6%
[2]
  AC50: 29.1 µM [rising, single point]
[1]
  AC50: 29.1 µM [rising, single point]

## Cc1c(Cl)cccc1NC(=O)COC(=O)c1c2c(nc3ccccc13)CCN(Cc1ccccc1)C2
  cell number change: -11.9%

## CN(C(=O)c1ccc(NC(=O)Cc2ccc(NC(=O)C3CCCN(C(=O)C4CCC4)C3)cc2)cc1)C1CC1 (stereo not given)
  cell number change: -39.2%
[2]
  AC50: 29.1 µM [falling, single point]
[1]
  AC50: 4.61 µM [falling, single point]

## Cc1cccnc1NC(=O)CCn1c(=O)oc2ccccc21
  cell number change: -43.6%
[2]
  AC50: 23.1 µM [falling, partial curve]

## Cc1c(NC(=O)CC2NC(=O)NC2=O)c(=O)n(-c2ccccc2)n1C (stereo not given)
  cell number change: -14%

## CC(=O)Nc1ccc(/C(C)=N/Nc2nc(Nc3cccc4ccccc34)nc(N3CCOCC3)n2)cc1
  cell number change: -12.4%
[1]
  AC50: 29.1 µM [rising, single point]

## COC(=O)C(c1ccccc1)N(Cc1cccc(CN(C(C(=O)OC)c2ccccc2)S(C)(=O)=O)c1)S(C)(=O)=O (stereo not given)
  cell number change: 5.83%
[1]
  AC50: 29.1 µM [rising, single point]

## O=C(Nc1ccc2oc(-c3ccccc3)nc2c1)c1cc(-n2cnnc2)ccc1Cl
  cell number change: 23.6%
[1]
  AC50: 0.58 µM [rising, full curve, poor fit]

## CCOc1ccccc1/C=C(\C#N)C1=CCCC1
  cell number change: -38.1%
[2]
  AC50: 29.1 µM [falling, single point]

## O=C(CSc1nnc(-c2cccs2)n1-c1ccccc1)NCc1ccc2c(c1)OCO2
  cell number change: 2.37%
[1]
  AC50: 0.82 µM [rising, full curve, poor fit]

## CC(=O)c1sc2nc(-c3ccc(C)cc3)c3c(c2c1N)CCCC3
  cell number change: 2.42%
[1]
  AC50: 1.64 µM [rising, partial curve]

## CCCCNC(=O)Nc1nc2ccc(CC)cc2s1
  cell number change: 26.1%

## Cc1ccccc1Cn1ccc(NC(=O)c2cnn3cccnc23)n1
  cell number change: 12.6%

## O=C(O)c1c2c(nc3ccccc13)-c1ccccc1CC2
  cell number change: -21.9%
[1]
  AC50: 5.8 µM [falling, full curve, poor fit]
